Primary screen of a compound library

Data taken from ChEMBL document CHEMBL3988442, “University of Dundee, Small-Polar-MMV Screening Library” (2021).

T. brucei: 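Whole-parasite assay of Trypanosoma brucei over 72 hours; the read-out is not stated. Concentration: 30 µM. Higher reads as stronger inhibition (inferred: compounds with an IC50 in retests scored well above the rest). Values scatter widely below zero; nearly all retest evidence comes from the higher of the two concentrations used. Of about 64,000 compounds tested this way, about 940 (1.5%) reached 50% or more in at least one test.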
Toxoplasma: 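Assay of Toxoplasma gondii numbers, read through their beta-galactosidase reporter with a colour substrate. Compounds at 10 µM. Higher reads as fewer parasites (inferred from which compounds were picked for retests). Size under these conditions: about 67,000 compounds, about 260 of them at 50% or above in at least one test.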

Each number is a percent effect as filed. How 0% and 100% were set is not recorded. Most values in the screen are low, and negative values occur. This is an unselected part of the compounds tested.

For CC1CN(Cc2ccccn2)CCN1c1ccc2nncn2n1 (configuration not stated) the result was T. brucei: -11.79%; Toxoplasma: -3.861%. With CN(C)c1cc2c(nn1)CCN(C(=O)c1cc3c(s1)CCOC3)C2 the screen gave T. brucei: -1.276%; Toxoplasma: -6.29%. For Cc1cc(N2CCC(O)CC2)nc(C)n1 the result was T. brucei: -14.35%; Toxoplasma: -10.37%. CCN(c1ccsc1C(=O)N1CCSCC1)S(=O)(=O)c1ccc(Cl)cc1 read T. brucei: -18.74%; Toxoplasma: 8.24%. CC1(C)CNC(=O)c2nc(C3CCCN(S(C)(=O)=O)C3)[nH]c2C1 (configuration not stated) gave T. brucei: 21.46%; Toxoplasma: -2.375%. Result for O=C(CN1CCCC(c2ccn[nH]2)C1)Nc1nc2c(s1)CCCC2 (configuration not stated) was T. brucei: 99.87%; Toxoplasma: 31.73%. Result for Cc1cnc(C(=O)N2CCCN(Cc3csc(C)n3)CC2)cn1 was T. brucei: 2.452%; Toxoplasma: 11.54%.

With [H][C@]12CC[C@]([H])(CN(C3CCOCC3)C1)N(C(=O)c1csc(NC)n1)C2 the screen gave T. brucei: -4.836%; Toxoplasma: -0.1655%. Result for COCc1cnc2n1CCN(C(=O)C1=CCCCC1)C2C (configuration not stated) was T. brucei: -9.564%; Toxoplasma: -4.304%. O=S(=O)(C1CC1)N1CCC2(CCCN(c3ncc(F)cn3)C2)C1 (configuration not stated) read T. brucei: -30.49%; Toxoplasma: -6.157%. N#Cc1ccc(CN2CCCC(Cn3cncn3)C2)c(F)c1 (configuration not stated) gave T. brucei: -46.03%; Toxoplasma: -1.436%. With CN(C)C(=O)C1CSCN1C(=O)CCc1ccco1 (configuration not stated) the screen gave T. brucei: 2.599%; Toxoplasma: -1.072%. With CCN(CC)Cc1cnc2n1CCN(C1CCOC1)CC2 (configuration not stated) the screen gave T. brucei: -100.4%; Toxoplasma: -4.169%. Result for CC(C)c1nn(C)c(N2CCOCC2)c1CNCC(=O)N(C)C was T. brucei: 15.52%; Toxoplasma: -10.45%.

NC(=O)CN1CC2(CCC1=O)CCN(C(=O)c1ccccc1F)CC2 gave T. brucei: -55.43%; Toxoplasma: 35.7%. CS(=O)(=O)N1CCN(c2ccnc(N3CCCC3)n2)CC1 read T. brucei: -44.34%; Toxoplasma: 4.4%. CCc1n[nH]c(C2CN(Cc3nc(C4CC4)no3)CCO2)n1 (configuration not stated) read T. brucei: -11.51%; Toxoplasma: 4.864%. For COc1ccc(OCCN(C)C(=O)NC(C)c2nncn2C)cc1 (configuration not stated) the result was T. brucei: 18.53%; Toxoplasma: 8.473%. For CN1CCC(N2CCCC(C(=O)N3Cc4ccccc4C3)C2)CC1 (configuration not stated) the result was T. brucei: -26.05%; Toxoplasma: 10.83%. Cc1nc(CN(C)CC(c2cccs2)N2CCOCC2)no1 (configuration not stated) read T. brucei: -18.17%; Toxoplasma: 17.2%. With CCCN(Cc1ccc(OC)nc1)Cc1ccccc1OC the screen gave T. brucei: -21.84%; Toxoplasma: -1.231%.

CCCn1ncnc1C(C)NC(=O)C1CCN(C(=O)C2CC2)CC1 (configuration not stated) read T. brucei: -88.42%; Toxoplasma: -2.705%. With CNc1cc(C(=O)N(C)Cc2cc(-c3cccs3)n[nH]2)ccn1 the screen gave T. brucei: -16.22%; Toxoplasma: -3.487%. Result for CC(CCN1CCCn2nc(CNS(C)(=O)=O)cc2C1)c1ccccc1 (configuration not stated) was T. brucei: -42.65%; Toxoplasma: -90.48%. For O=C(NCc1ccc(-n2cncn2)nc1)c1ccc2c(c1)CCO2 the result was T. brucei: 1.023%; Toxoplasma: 4.652%. Result for CCN(CC1CN(Cc2cccc(C#N)c2)CCO1)c1cccnn1 (configuration not stated) was T. brucei: 29.7%; Toxoplasma: 4.535%. With O=c1cc(N2CCCC2)cnn1Cc1noc(C2CCCO2)n1 (configuration not stated) the screen gave T. brucei: -51.71%; Toxoplasma: -17.41%. COc1ccc(NS(=O)(=O)c2cnc(NC(C)=O)s2)cc1 gave T. brucei: -9.359%; Toxoplasma: 74.55%.

O=C(CCn1ccnn1)N1CCCC(n2cncn2)C1 (configuration not stated) gave T. brucei: -61.23%; Toxoplasma: 17.92%. COc1ccc2c(c1)OCC(Cc1ccc(CN)cn1)C2 (configuration not stated) read T. brucei: -24.33%; Toxoplasma: -0.3398%. With CCc1c(C(=O)N2CC[C@H](N3CCOCC3)[C@H](CCCO)C2)csc1C the screen gave T. brucei: -83.99%; Toxoplasma: 8.789%. COc1cc(N2CCC3(CCN(Cc4csc(C)n4)C3)CC2)ncn1.O=C(O)C(F)(F)F read T. brucei: -82.06%; Toxoplasma: -2.362%. O=C(NCCOc1ncc(Cl)cc1Cl)c1ccncc1 gave T. brucei: -6.672%; Toxoplasma: -0.05755%. With Cc1n[nH]c(C2CN(C(=O)c3ccc4c(c3)CCCC4)CCO2)n1 (configuration not stated) the screen gave T. brucei: -97.15%; Toxoplasma: 25.2%. For Cn1ccnc1CN1CCN(CCOc2cccc(C#N)c2)CC1 the result was T. brucei: -10.81%; Toxoplasma: 10.37%.

NS(=O)(=O)c1ccc(F)c(C(=O)NCCSc2ccccn2)c1 read T. brucei: -0.6289%; Toxoplasma: 0.3121%. With CC(C)S(=O)(=O)NCC1CCCN(C(=O)c2ccc(F)cc2)C1 (configuration not stated) the screen gave T. brucei: -32.8%; Toxoplasma: 15.26%. COc1ccc(C2CCCCCN2S(=O)(=O)N(C)C)cc1 (configuration not stated) gave T. brucei: -20.86%; Toxoplasma: 0.9887%. For Cc1nc2c(c(NCC(O)C(F)(F)F)n1)CCNCC2 (configuration not stated) the result was T. brucei: -77.95%; Toxoplasma: 13.91%. For Cc1ccc(S(=O)(=O)NC(=O)C2(c3ccc(F)cc3)CCC2)c(C)c1 the result was T. brucei: -0.288%; Toxoplasma: -6.331%. For CN1CCC(N2CCOC[C@H]2c2nc(C(C)(C)C)c[nH]2)CC1 the result was T. brucei: -5.173%; Toxoplasma: 2.141%. O=C(O)C(F)(F)F.O=C(O)C(F)(F)F.[H][C@@]12COC[C@]1(COc1cccnc1)CN(C1CCC1)C2 read T. brucei: 10.94%; Toxoplasma: 3.482%.

Result for Cc1cc(C2CCCN(CCc3ccc4c(c3)CCO4)C2)n[nH]1 (configuration not stated) was T. brucei: -2.85%; Toxoplasma: -3.204%. O=C(NCc1cccc(N2CCCCC2=O)c1)[C@@H](O)c1ccccc1 gave T. brucei: 23.62%; Toxoplasma: 4.748%.

Some entries from above, unchanged:

SMILES,T. brucei,Toxoplasma
CCCN(Cc1ccc(OC)nc1)Cc1ccccc1OC,-21.84,-1.231
COc1ccc(C2CCCCCN2S(=O)(=O)N(C)C)cc1 (configuration not stated),-20.86,0.9887
Cc1ccc(S(=O)(=O)NC(=O)C2(c3ccc(F)cc3)CCC2)c(C)c1,-0.288,-6.331
O=C(CN1CCCC(c2ccn[nH]2)C1)Nc1nc2c(s1)CCCC2 (configuration not stated),99.87,31.73
NS(=O)(=O)c1ccc(F)c(C(=O)NCCSc2ccccn2)c1,-0.6289,0.3121